# Inconclusive results, whose numbers are uncertain, are shown with a selection of clear calls. The source made the active and inactive calls.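 The calls were made as follows: active = melting temperature shift above 3 C; inconclusive = shift above 1 C but not above 3 C; inactive = the rest.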
# Protein sequences, listed by entry. Tags and fused reporters are not part of them. Lines headed by an entry give the natural chain unless they say otherwise; changes in a name come on top.
# UniProt P15428: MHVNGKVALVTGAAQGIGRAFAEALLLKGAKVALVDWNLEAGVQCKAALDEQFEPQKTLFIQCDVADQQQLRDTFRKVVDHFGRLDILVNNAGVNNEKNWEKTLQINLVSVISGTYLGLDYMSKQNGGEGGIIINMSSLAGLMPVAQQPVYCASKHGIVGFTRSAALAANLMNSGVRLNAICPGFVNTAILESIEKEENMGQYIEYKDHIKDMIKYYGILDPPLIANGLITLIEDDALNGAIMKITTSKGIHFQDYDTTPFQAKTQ
# Biological target: 15-hydroxyprostaglandin dehydrogenase [NAD(+)] (Homo sapiens) (UniProt P15428)
# Test: Thermal Shift Assay for Inhibitors of HPGD (15-Hydroxyprostaglandin Dehydrogenase)
# Conditions: Recombinant HPGD thermal shift, SYPRO orange DSF, at 250 µM, hits give high values
# Procedure: Assay Overview: Human 15-Hydroxyprostaglandin dehydrogenase (HPGD) catalyzes the inactivation of prostaglandin E2, and plays a major role in cancer biology by antagonizing the oncogenic potential of cyclooxygenase type 2 (COX2). Studies to assess the stability of human 15-PGDH in presence of compounds was performed as described (Niesen et al., 2007) with variations. References 1. Myung SJ, Rerko RM, Yan M, Platzer P, Guda K, Dotson A, Lawrence E, Dannenberg AJ, Lovgren AK, Luo G, Pretlow TP, Newman RA, Willis J, Dawson D, Markowitz SD. 15-Hydroxyprostaglandin dehydrogenase is an in vivo suppressor of colon tumorigenesis. Proc Natl Acad Sci U S A. 2006 Aug 8;103(32):12098-102. 2. Yan M, Rerko RM, Platzer P, Dawson D, Willis J, Tong M, Lawrence E, Lutterbaugh J, Lu S, Willson JK, Luo G, Hensold J, Tai HH, Wilson K, Markowitz SD. 15-Hydroxyprostaglandin dehydrogenase, a COX-2 oncogene antagonist, is a TGF-beta-induced suppressor of human gastrointestinal cancers. Proc Natl Acad Sci U S A. 2004 Dec 14;101(50):17468-73. 3. Yang L, Amann JM, Kikuchi T, Porta R, Guix M, Gonzalez A, Park KH, Billheimer D, Arteaga CL, Tai HH, Dubois R, Carbone DP, Johnson DH. Inhibition of Epidermal Growth Factor Receptor Signaling Elevates 15-Hydroxyprostaglandin Dehydrogenase in Non-Small-Cell Lung Cancer. Cancer Res. 2007 Jun 15;67(12):5587-5593. 4. Niesen FH, Berglund H, Vedadi M: The use of differential scanning fluorimetry to detect ligand interactions that promote protein stability. Nature protocols 2007; 2:2212-2221 NIH Chemical Genomics Center [NCGC] Structural Genomics Consortium [SGC]
# HPGD was diluted to a final assay concentration of 1 uM in 100 mM Tris buffer, pH 8.0, containing 0.01% Tween-20 and 1:1000 SYPRO orange dye. The final assay volume is 10 ul, with or without 200 uM of either NAD+ or NADH. Compounds were added 1:5 from appropriate stock solutions in 10% (v/v) DMSO to comprise either 50 or 250 uM final concentrations. Heat denaturation curves were recorded using a RT-PCR instrument (Mx3005p, Agilent) applying a temperature gradient of 2 degree C/min. Analysis of the data was performed using DSF Analysis vers. 2.5 (ftp://ftp.sgc.ox.ac.uk/pub/biophysics) and Prism 5.0 (GraphPad Software, Inc.)
row,SMILES,thermal shift (delta Tm)
1,Cc1ccc(CNC(=O)c2ccc(Cl)cc2[N+](=O)[O-])cc1,inconclusive: 1.1 C
2,COc1ccccc1C(=O)Nc1ccc(C(=O)N2CCCC2)cc1,inconclusive: 2.2 C
3,Cc1cccc(-n2cnc3cc(C(=O)N4CCCCC4)ccc32)c1,active: 7.3 C
4,CC1=CCC2C(=O)N(c3ccc(C(=O)N4CCCCCC4)cc3)C(=O)C2C1 (configuration not stated),inconclusive: 1.7 C
5,O=C(c1ccc(CSc2ccccc2)cc1)N1CCCCCC1,inconclusive: 2.2 C
6,Fc1ccccc1CSc1nc2ncc(Br)cc2[nH]1,active: 7.6 C
7,CCN(CC)C(=O)c1sc2nc(-c3cccs3)cc(-c3ccc(Cl)cc3)c2c1N,inactive: 0.9 C
8,CC1CCCC(C)N1C(=O)c1cc2ncc(CCCl)cn2n1 (configuration not stated),inconclusive: 2 C
9,Cc1ccc(S(=O)(=O)NCc2ccc(C(=O)N3CCc4ccccc4C3)cc2)cc1,inconclusive: 1.2 C
10,O=C(CSc1nc(-c2ccccc2)nn1C(=O)c1ccccc1)Nc1cccc([N+](=O)[O-])c1,active: 4 C
11,CC1CCCN(C(=O)c2sc3cc([N+](=O)[O-])ccc3c2Cl)C1 (configuration not stated),inconclusive: 2.7 C
12,O=C(c1ccc2c(c1)OCCO2)N1CCCCC1,active: 3.5 C
13,O=c1c2ccccc2sn1-c1cc(S(=O)(=O)N2CCOCC2)ccc1N1CCCC1,inconclusive: 2.4 C
14,O=C(c1ccc2c(c1)OCO2)N1CCc2ccccc2C1,active: 3.3 C
15,COCCNC(=O)c1cc2oc3ccccc3c2n1C,inconclusive: 2.7 C
16,Cc1ccccc1C(=O)N1CCc2ccccc2C1,inconclusive: 1.5 C
17,O=C(Nc1ccc(C(=O)N2CCCCC2)cc1)c1ccc(Br)cc1,inconclusive: 2.2 C
18,CC1CCN(C(=O)c2cc3nc(C4CC4)cc(C(F)(F)F)n3n2)CC1,inconclusive: 1.1 C
19,O=C(c1ccc(N2C(=O)C3CCCCC3C2=O)cc1)N1CCCCC1 (configuration not stated),inconclusive: 2.1 C
20,O=C(c1sc2cc([N+](=O)[O-])ccc2c1Cl)N1CCCCC1,inconclusive: 2.4 C
21,CC1CCN(C(=O)c2ccc(CSc3ccc(Cl)cc3)cc2)CC1,inconclusive: 2.3 C
22,O=C(NCCc1ccccc1)C1CCC(CNc2c(N3CCCCC3)c(=O)c2=O)CC1 (configuration not stated),inconclusive: 1.9 C

# Pulled one by one from the list above (two):
row,SMILES,thermal shift (delta Tm)
18,CC1CCN(C(=O)c2cc3nc(C4CC4)cc(C(F)(F)F)n3n2)CC1,inconclusive: 1.1 C
12,O=C(c1ccc2c(c1)OCCO2)N1CCCCC1,active: 3.5 C
